This note sets out measurements from paper PMC12373997.

In test [1] the target is T1, D. melanogaster Msd5^Δ81–93 (HAUS7 ortholog)-EGFP, N-clamp fragment (D. melanogaster) (UniProt Q9W0G6).
T1 sequence: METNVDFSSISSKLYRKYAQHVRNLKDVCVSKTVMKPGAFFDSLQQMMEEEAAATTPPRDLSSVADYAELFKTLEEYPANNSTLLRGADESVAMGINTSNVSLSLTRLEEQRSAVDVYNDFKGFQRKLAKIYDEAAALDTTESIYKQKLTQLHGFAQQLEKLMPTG
As to the kind of experiment: mass photometry; complex purified as a whole, 1 µl of 400 nM protein into 19 µl MP buffer (20 mM HEPES pH 7.4, 150 mM KCl, 1 mM MgCl2, 1 mM EGTA, or 1xPBS); both purified.

Test [2] addresses T2, D. melanogaster Dgt4 (HAUS8 ortholog)-HIS8, N-clamp fragment (D. melanogaster) (UniProt Q9W4M8).
T2 sequence: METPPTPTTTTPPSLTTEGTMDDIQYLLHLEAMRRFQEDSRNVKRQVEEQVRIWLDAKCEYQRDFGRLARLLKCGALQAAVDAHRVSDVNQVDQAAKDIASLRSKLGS
The test is described as above.

No constants are given. Whether binding was seen depends on the method and setting. Some entries that bind do so weakly or less than the wild type. Tags and fused reporters may be left off the sequences shown.

B1: D. melanogaster Dgt6 (HAUS6 ortholog), N-clamp fragment with the CH domain (domain or fragment, UniProt Q9VAP2 1-280)
chain: MDRTIIAPWKAEEKEQSEKLHRKLQGLALVHPLPDELRKLIAWDMFLKPNQVAFVHVMHYLFRLLDPAEFKRRFFWPITDKKSEANFRSSTVEYLKHLNEKHQLHWANIKSYLVVMPGGMRFINFLLEFVGFVIQELIKQREKSLGLEAGTPNVSAKVMARQNAVMKEYASSYVVNLEENTALLRDKTQKIRRLMADLSADMGVPEEQLADDGFLDEFEATAALGVERVITQPTERKFDLEASLCGLKEAIDLFQVKQAENNQSKEAVEKALRGMRVLFD
For the molecule B1, the binding result in test [1] is recorded as “binds”.

B2: D. melanogaster Msd5^Δ81–93 (HAUS7 ortholog)-EGFP, N-clamp fragment (domain or fragment, UniProt Q9W0G6)
chain: T1 sequence
Turning to B2, the binding result in test [2] was “binds”.
